Test results from PubChem BioAssay AID1471 (National Center for Advancing Translational Sciences (NCATS), 2008).
“And” between values parts separate entries of the source, which are not always exact repeats. Equal values may be shown once. The whole screen tested about 230,000 compounds, of which about 310 (0.13%) were called active. This list was built around the results that the source calls inconclusive (neither active nor inactive); the mix of calls is not that of the screen. Calls follow the shape of the dose curve; as a rule, active = well fitted activation curve with a large enough effect; inconclusive = small, poorly fitted or top-dose-only effect; inactive = no such curve, though single readings can be large or run the other way. Where the call is inconclusive, the potency comes from a doubtful curve fit. More than one record can exist for a structure, and the calls need not agree.

Assay: qHTS Multiplex Assay to Identify Dual Action Probes in a Cell Model of Huntington: Cytoprotection (ATP); also: nearly all actives have a fitted effect of over 45% in size;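 as to cytoprotection (ATP increase): toxic huntingtin expression switched on by the ecdysone agonist tebufenozide; % of control where 0% means no effect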
Conditions: PC12 HTT-Q103 induced, ATP luminescence, 40 h; cytoprotection (ATP increase): at 56.4 µM (top of the series) unless noted
Method in brief: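 Quantitative HTS on tebufenozide-induced (100 nM) PC12 cells expressing HTTQ103 exon 1–GFP; compounds tested as a concentration series; survival measured via cellular ATP.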
Potency is read from the fitted curve at half-maximal effect.

Row | SMILES | Potency | cytoprotection (ATP increase)
1 | CCCc1ncc(C[n+]2ccccc2C)c(N)n1 | inconclusive: 2.82 µM [activator, single point] | 
2 | O=C(NCc1ccc(Cl)cc1)c1ccccc1Oc1ccccc1 | inactive | 
3 | CCOc1ccc(/C=C/C(=O)CCC(=O)O)cc1 | inconclusive: 11.2 µM [activator, partial curve, poor fit] | 
4 | O=C(NCCCCNC(=O)C1CCCC1)C1CCCC1 | inactive | 
5 | O=C1NC(=O)C(c2ccccc2[N+](=O)[O-])=C1Nc1ccc(O)c(Cl)c1 | inconclusive: 39.8 µM [activator, single point] and active: 12.6 µM | 
6 | CCOC(=O)CC(NC(=O)c1ccco1)c1ccc(C)cc1 (configuration not stated) | inconclusive: 28.2 µM [activator, single point] | 
7 | CC1=CC2=NC(=O)/C(=C\c3ccc(OC(=O)c4ccco4)cc3)C(=N)N2O1 | inactive | 
8 | CCCCNS(=O)(=O)c1ccc2nc(SCC(=O)c3ccccc3OC)[nH]c2c1 | inactive | 
9 | CCc1cccc(C)c1NC(=O)C1CC=CCC1C(=O)O (configuration not stated) | inconclusive: 1.26 µM [activator, single point] | 
10 | OC[C@H]1O[C@@H](O[C@@H]2[C@@H](CO)O[C@](O)(CO)[C@H]2O)[C@H](O)[C@@H](O)[C@H]1O | inconclusive: 0.316 µM [activator, partial curve] | 
11 | CO[C@H]1COC(=O)C/C=C\[C@H](C)[C@H](OC)COC(=O)[C@@H](C)COC(=O)C/C=C\[C@@H]1C | inconclusive: 0.1 µM [activator, full curve, poor fit] | 
12 | C=C(CC)C(=O)c1ccc(OCC(=O)O)c(Cl)c1Cl | inconclusive: 31.6 µM [activator, single point] and inconclusive: 35.5 µM [activator, single point] | 
13 | O=C(NC1CCCCC1)c1cc([N+](=O)[O-])[nH]n1 | inconclusive: 5.62 µM [activator, single point] | 
14 | Nc1nn2c(-c3ccccc3)cc(=O)[nH]c2c1N=Nc1ccc(Br)cc1 |  | inactive: -20.2% [at 1.9 µM]
15 | Nc1ccc(S(=O)(=O)NC(=O)c2ccccc2)cc1 | inconclusive: 12.6 µM [activator, single point] | 
16 | CCOC(=O)C(NC(=O)NCc1ccccc1OC)(OCC)C(F)(F)F (configuration not stated) | inconclusive: 5.62 µM [activator, single point] | 
17 | CCOC(=O)c1ccccc1NC(=O)c1ccccc1NS(C)(=O)=O | inconclusive: 0.355 µM [activator, partial curve, poor fit] | 
18 | Cc1ccsc1/C=N/NC(=O)c1ccc2nc[nH]c2c1 |  | inactive: -10.3% [at 10 µM]
19 | COc1ccc(OC)c(N2CC(O)=C(c3nc4ccccc4s3)C2=N)c1 | inconclusive: 3.55 µM [activator, single point] | 
20 | CCCCCCCCCCCCCCCC(=O)O[C@H](CC(=O)O)C[N+](C)(C)C | inconclusive: 39.8 µM [activator, single point] | 
21 | Cc1ccccc1C(=O)NC1CCN(CC(=O)Nc2ccc3c(c2)OCCO3)CC1 | inactive | 
22 | N#Cc1c(Oc2ccc3ccccc3c2)sc(C(=O)c2ccccc2)c1N | inconclusive: 11.2 µM [activator, single point] | 
23 | Cc1ccc(S(=O)(=O)Nc2ccc(NC(=O)Nc3cccc(C(F)(F)F)c3)cc2)cc1 |  | inactive: 0.761% [at 10 µM]

Row | SMILES | Potency | cytoprotection (ATP increase)
24 | COCCN1Cc2cccc(C(=O)Nc3ccc(C)cc3)c2C1=O | inconclusive: 0.398 µM [activator, partial curve] | 
25 | O=C(c1cc2nc(-c3cccs3)cc(C(F)(F)F)n2n1)N1CCCc2ccccc21 | inactive | 
26 | Cc1cc(C)cc(NC(=O)C2CCCN(c3nc(C)cc(C)n3)C2)c1 (configuration not stated) | inactive | 
27 | Cc1ccc(-n2nc(C)c3c2OC(N)=C(C#N)C3c2ccc(C)o2)cc1 (configuration not stated) |  | inactive: 17.1% [at 10 µM]
28 | O=C(c1cc(C(F)(F)F)cc(C(F)(F)F)c1)N1CCC2(CCN(Cc3ccncc3)CC2)CC1 | inconclusive: 7.08 µM [activator, partial curve] | 
29 | O=C(Nc1cccnc1Cl)c1cc([N+](=O)[O-])ccc1Cl | inconclusive: 4.47 µM [activator, full curve, poor fit] | 
30 | COc1ccc2c(c1)O[C@H](c1ccc3c(c1)OCO3)[C@@H](OC(=O)Nc1ccc(C)c(Br)c1)C2=O | inactive | 
31 | Cc1ccc(C(=O)N/C(=C\c2ccc(C)o2)C(=O)O)cc1 | inconclusive: 0.316 µM [activator, partial curve, poor fit] | 
32 | N#CC1=C(S)N(c2ccc(F)cc2)C(c2cccs2)NC1=O (configuration not stated) | inactive | 
33 | Cc1ccc(NC(=O)C2CCN(C(=O)c3ccccc3C)CC2)cc1 | inconclusive: 5.62 µM [activator, single point] | 
34 | S=C(NCc1ccco1)Nc1ccc(Cl)cc1 | inconclusive: 5.62 µM [activator, single point] | 
35 | CNC(=O)/C(C#N)=c1\s/c(=C/C(=O)OC)c(=O)n1-c1ccccc1 | inactive | 
36 | CC(=O)OC[C@H]1O[C@@H](O/N=C(\C)CCN2CCc3nc(-c4ccccc4)c(-c4ccccc4)cc3C2)[C@H](OC(C)=O)[C@@H](OC(C)=O)[C@H]1OC(C)=O | inconclusive: 0.0016 µM [activator, partial curve, poor fit] | 
37 | Cc1nc(N)sc1C(=O)N/N=C/c1c[nH]c2ccccc12 | inconclusive: 2.51 µM [activator, full curve] | 
38 | COC(=O)/C(=C/N(C)C)C(=O)N1CCN(c2ccc(Cl)c(Cl)c2)CC1 | inconclusive: 0.447 µM [activator, single point] | 
39 | CC(O)CNC(=O)c1ccc(-c2nn(C)c(=O)c3ccccc23)cc1 (configuration not stated) | inactive | 
40 | CCC(C)(C)NC(=O)CN(C(=O)CNS(=O)(=O)c1ccc(C)cc1)c1ccc2c(c1)OCCO2 | inactive | 
41 | CC(C)(C)n1nnnc1C(c1cccc(C#N)c1)N1CCCCCC1 (configuration not stated) | inconclusive: 5.62 µM [activator, single point] | 
42 | O=C(CSc1nnc(-c2ccccc2)c(-c2ccccc2)n1)Nc1ccc(Br)cn1 | inconclusive: 0.398 µM [activator, full curve, poor fit] | 
43 | COc1ccccc1/C=N/N1C(=O)C(CC(=O)Nc2ccc([N+](=O)[O-])cc2OC)SC1=Nc1cccc(C)c1C (configuration not stated) | inactive | 
44 | CN(C)/C=C1\C(=O)ON=C1c1ccccc1 | inconclusive: 1 µM [activator, single point] | 
45 | O=C(COC(=O)c1cc(-c2ccccc2)nc2ccccc12)NCC1CCCO1 (configuration not stated) | inconclusive: 0.316 µM [activator, partial curve, poor fit] | 
46 | O=P(c1ccc2c(c1)OCCO2)(N1CCOCC1)N1CCOCC1 | inconclusive: 5.62 µM [activator, single point] | 

Row | SMILES | Potency | cytoprotection (ATP increase)
47 | CNC1C(OC2C(O[C@@H]3C(O)C(O)[C@@H](N=C(N)N)C(O)C3N=C(N)N)OC(C)[C@@]2(O)CO)OC(CO)C(O)C1O (some centres not stated) | inconclusive: 0.562 µM [activator, full curve] | 
48 | CSCC[C@@H](N)C(=O)O | inactive | 
49 | N#Cc1cccc(NC(=O)N2CC3(CCN(C(=O)c4cccc(F)c4)CC3)C2)c1 | inconclusive: 0.282 µM [activator, partial curve, poor fit] | 
50 | CCCOc1cccc(C(=O)O)c1 | inactive | 
51 | O=C(CCCOc1ccccc1)Nc1ccc(S(=O)(=O)Nc2ccccn2)cc1 | inactive | 
52 | CN(C)S(=O)(=O)c1ccc(NC(=S)NC(=O)c2cccs2)cc1 | inactive | 
53 | CC1(C)Cc2c(c(=S)nc(-c3ccccc3)n2CCCN2CCOCC2)CO1 |  | inactive: -12.1% [at 0.074 µM]
54 | O=C1NCCN1c1ncc([N+](=O)[O-])s1 | active: 0.0891 µM | 
55 | COc1c(S(=O)(=O)NCCCN2CCOCC2)ccc(Cl)c1Cl |  | inactive: 4.55% [at 10 µM]
56 | CN(CCc1ccccn1)c1ccc2c(c1)C(=O)c1ccccc1-2 |  | inactive: 11.9% [at 10 µM]
57 | Cc1noc(C)c1CSc1nnc(-c2ccccc2)n1Cc1ccco1 |  | inactive: -23.5% [at 10 µM]
58 | COC(=O)C/C=C/[C@@H](C)[C@H](O)c1ccccc1Br | inconclusive: 3.98 µM [activator, single point] | 
59 | COc1ccc2[nH]c3c(c2c1)CCNC3=O | inconclusive: 6.31 µM [activator, single point] | 
60 | O=C(O)[C@H]1CN(CCCP(=O)(O)O)CCN1 | inconclusive: 1.26 µM [activator, single point] | 
61 | O=C(NCCc1ccccn1)c1ccc(NS(=O)(=O)c2ccc(F)cc2)cc1 | inconclusive: 3.98 µM [activator, single point] | 
62 | NN/C(=C\[N+](=O)[O-])Nc1ccc(Cl)cc1 | inconclusive: 6.31 µM [activator, single point] | 
63 | Cc1ccc(NC(=O)CN2C(=O)N/C(=C/c3cc(C)n(-c4ccc(C(=O)O)cc4)c3C)C2=O)cc1 | inconclusive: 31.6 µM [activator, single point] | 
64 | COc1ccc(-c2nc3cnc(N4CCN(C)CC4)nc3n(C3CC3)c2=O)cc1 | inconclusive: 0.794 µM [activator, partial curve, poor fit] | 
65 | Clc1ccc(/C=N/Nc2nn[nH]n2)cc1 | inconclusive: 3.16 µM [activator, single point] | 
66 | C=CCNC(=O)/C(C#N)=C/c1c(N(Cc2ccccc2)Cc2ccccc2)nc2ccccn2c1=O | inconclusive: 1 µM [activator, single point] | 
67 | CC(=O)CCn1cnc([N+](=O)[O-])n1 | inconclusive: 10 µM [activator, partial curve] | 
